These are yes or no findings as the source states them, for the method shown. In cells and extracts the contact can be indirect. Some binding calls cover weakened binding; strength is not graded here.

Protein sequences, listed by entry. Tags and fused reporters are not part of them. Lines headed by an entry give the natural chain unless they say otherwise; changes in a name come on top.
UniProt Q9CU62: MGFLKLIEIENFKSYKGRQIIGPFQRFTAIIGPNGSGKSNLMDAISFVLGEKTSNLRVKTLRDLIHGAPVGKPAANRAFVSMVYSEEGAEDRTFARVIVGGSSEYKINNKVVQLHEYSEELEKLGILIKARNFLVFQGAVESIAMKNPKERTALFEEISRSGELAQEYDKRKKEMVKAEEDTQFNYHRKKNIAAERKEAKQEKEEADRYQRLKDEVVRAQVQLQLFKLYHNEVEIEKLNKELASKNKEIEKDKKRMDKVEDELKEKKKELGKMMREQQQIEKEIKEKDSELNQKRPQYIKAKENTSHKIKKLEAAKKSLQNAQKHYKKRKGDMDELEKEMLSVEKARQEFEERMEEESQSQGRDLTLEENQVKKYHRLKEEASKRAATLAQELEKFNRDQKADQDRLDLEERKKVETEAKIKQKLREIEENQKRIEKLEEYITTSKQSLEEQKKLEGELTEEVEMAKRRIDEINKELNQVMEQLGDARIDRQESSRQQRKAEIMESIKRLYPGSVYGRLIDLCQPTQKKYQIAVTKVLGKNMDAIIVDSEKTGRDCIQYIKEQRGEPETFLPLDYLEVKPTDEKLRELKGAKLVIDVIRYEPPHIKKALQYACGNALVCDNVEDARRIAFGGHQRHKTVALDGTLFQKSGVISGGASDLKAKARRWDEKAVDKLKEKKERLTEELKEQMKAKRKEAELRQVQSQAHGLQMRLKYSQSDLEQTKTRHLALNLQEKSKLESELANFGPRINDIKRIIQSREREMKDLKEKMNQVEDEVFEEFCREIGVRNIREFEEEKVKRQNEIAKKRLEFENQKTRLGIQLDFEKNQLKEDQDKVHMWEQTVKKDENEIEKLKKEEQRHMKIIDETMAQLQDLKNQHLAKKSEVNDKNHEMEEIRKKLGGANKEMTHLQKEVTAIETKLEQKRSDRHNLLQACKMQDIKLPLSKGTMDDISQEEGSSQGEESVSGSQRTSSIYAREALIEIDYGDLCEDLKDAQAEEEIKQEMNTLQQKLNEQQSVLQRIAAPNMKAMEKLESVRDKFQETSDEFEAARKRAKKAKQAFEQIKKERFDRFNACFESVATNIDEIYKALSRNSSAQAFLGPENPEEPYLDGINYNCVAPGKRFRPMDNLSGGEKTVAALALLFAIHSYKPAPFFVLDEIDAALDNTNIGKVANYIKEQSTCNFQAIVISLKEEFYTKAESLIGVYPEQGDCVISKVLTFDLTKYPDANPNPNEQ

Results on one substance are retold here after publication PMC7418333.

The experiment concerns the target T1, CTCF (mouse (endogenous in mESCs v6.5)) (UniProt Q61164).
T1 sequence: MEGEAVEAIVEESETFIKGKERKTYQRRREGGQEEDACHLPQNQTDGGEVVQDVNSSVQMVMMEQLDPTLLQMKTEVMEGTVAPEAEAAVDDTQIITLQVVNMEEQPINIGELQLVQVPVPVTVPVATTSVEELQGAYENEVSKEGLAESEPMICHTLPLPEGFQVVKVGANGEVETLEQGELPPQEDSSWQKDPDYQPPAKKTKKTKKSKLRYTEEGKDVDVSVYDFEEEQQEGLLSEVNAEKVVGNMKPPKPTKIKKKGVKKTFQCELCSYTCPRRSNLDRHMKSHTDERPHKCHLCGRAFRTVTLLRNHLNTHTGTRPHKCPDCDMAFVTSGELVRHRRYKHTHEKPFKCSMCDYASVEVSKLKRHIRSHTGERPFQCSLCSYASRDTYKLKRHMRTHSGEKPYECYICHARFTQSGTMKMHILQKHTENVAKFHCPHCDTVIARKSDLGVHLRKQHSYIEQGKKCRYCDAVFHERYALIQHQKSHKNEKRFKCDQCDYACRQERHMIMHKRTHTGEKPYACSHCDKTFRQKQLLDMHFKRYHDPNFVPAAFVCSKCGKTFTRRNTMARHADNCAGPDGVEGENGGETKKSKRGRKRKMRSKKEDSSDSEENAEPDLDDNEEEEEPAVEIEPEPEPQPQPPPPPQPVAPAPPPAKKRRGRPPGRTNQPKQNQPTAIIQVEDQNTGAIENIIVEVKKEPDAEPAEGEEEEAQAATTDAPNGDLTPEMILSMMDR
The experiment in a line: co-IP; CTCF IP then western blot for cohesin, from mESC nuclear lysates digested with Benzonase; four conditions: wild-type siGLO, wild-type siStag1, Stag2-/- siGLO, Stag2-/- siStag1 (48 h siRNA).

Consider “cohesin (core cohesin ring) (from UniProt Q9CU62 1-1233; Q9CW03 1-1217; Q61550 1-635) (complex)”, for which the binding result is on record as “binds”.
